Experimental data: PMC11589570, “Critical assessment of LC3/GABARAP ligands used for degrader development and ligandability of LC3/GABARAP binding pockets” (Nature Communications, 2024)
Where “and” joins values, the source holds several entries; their conditions need not be identical. Equal entries are not always repeated. The source gives many values for each of these; only a part stands here.

Tested on: RPE1 cells
Experiment: Cell growth assay (IncuCyte confluence over 72 h)
Assay type: cell-based
How it was run: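 Phase confluence (% area covered by cells) imaged every 2 h for 72 h after compound addition; cells in DMEM/10% FBS, seeded 24 h before treatment. Controls were 0.1% DMSO, 250 nM Torin1 and 200 ng/mL Bafilomycin (final). Each point averages three wells.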

**Q.** What does the source list for Cc1ccc(C)c(S(=O)(=O)Nc2cc(SCC(=O)O)c(O)c3ccccc23)c1 [compound 8]?
**A.** RPE1 cell growth (100 nM, 14 h, listed as KT1): 27 and 37 and 19; RPE1 cell growth (100 nM, 16 h, listed as KT1): 31 and 39 and 21; RPE1 cell growth (100 nM, 18 h, listed as KT1): 32 and 43 and 22; RPE1 cell growth (100 nM, 20 h, listed as KT1): 33 and 47 and 24; RPE1 cell growth (100 nM, 22 h, listed as KT1): 33 and 48 and 25; RPE1 cell growth (100 nM, 24 h, listed as KT1): 36 and 54 and 27; RPE1 cell growth (100 nM, 26 h, listed as KT1): 41 and 57 and 29; RPE1 cell growth (100 nM, 30 h, listed as KT1): 44 and 67 and 35; RPE1 cell growth (100 nM, 32 h, listed as KT1): 50 and 71 and 37; RPE1 cell growth (100 nM, 34 h, listed as KT1): 52 and 76 and 42; RPE1 cell growth (100 nM, 36 h, listed as KT1): 57 and 80 and 42; RPE1 cell growth (100 nM, 38 h, listed as KT1): 58 and 85 and 47; RPE1 cell growth (100 nM, 40 h, listed as KT1): 63 and 88 and 52; RPE1 cell growth (100 nM, 42 h, listed as KT1): 67 and 92 and 54; RPE1 cell growth (100 nM, 44 h, listed as KT1): 72 and 95 and 59; RPE1 cell growth (100 nM, 46 h, listed as KT1): 73 and 96 and 65; RPE1 cell growth (100 nM, 48 h, listed as KT1): 78 and 98 and 67; RPE1 cell growth (100 nM, 50 h, listed as KT1): 82 and 99 and 70; RPE1 cell growth (100 nM, 52 h, listed as KT1): 85 and 99 and 78; RPE1 cell growth (100 nM, 54 h, listed as KT1): 90 and 100 and 81; RPE1 cell growth (100 nM, 56 h, listed as KT1): 91 and 100 and 85; RPE1 cell growth (100 nM, 58 h, listed as KT1): 95 and 100 and 90; RPE1 cell growth (100 nM, 60 h, listed as KT1): 97 and 100 and 93; RPE1 cell growth (100 nM, 62 h, listed as KT1): 98 and 100 and 93; RPE1 cell growth (100 nM, 64 h, listed as KT1): 99 and 100 and 96; RPE1 cell growth (100 nM, 66 h, listed as KT1): 99 and 100 and 98; RPE1 cell growth (100 nM, 68 h, listed as KT1): 100 and 98; RPE1 cell growth (100 nM, 70 h, listed as KT1): 100 and 99; RPE1 cell growth (100 nM, 72 h): 100; RPE1 cell growth (500 nM, 16 h, listed as KT1): 33 and 48 and 25; RPE1 cell growth (500 nM, 20 h, listed as KT1): 35 and 56 and 29; RPE1 cell growth (500 nM, 22 h, listed as KT1): 35 and 60 and 30; RPE1 cell growth (500 nM, 24 h, listed as KT1): 39 and 65 and 33; RPE1 cell growth (500 nM, 30 h, listed as KT1): 47 and 78 and 40; RPE1 cell growth (500 nM, 32 h, listed as KT1): 52 and 82 and 42; RPE1 cell growth (500 nM, 34 h, listed as KT1): 56 and 86 and 46; RPE1 cell growth (500 nM, 36 h, listed as KT1): 60 and 90 and 48; RPE1 cell growth (500 nM, 38 h, listed as KT1): 65 and 93 and 54; RPE1 cell growth (500 nM, 40 h, listed as KT1): 67 and 95 and 58; RPE1 cell growth (500 nM, 42 h, listed as KT1): 72 and 96 and 62; RPE1 cell growth (500 nM, 44 h, listed as KT1): 77 and 98 and 66; RPE1 cell growth (500 nM, 46 h, listed as KT1): 80 and 99 and 70; RPE1 cell growth (500 nM, 48 h, listed as KT1): 83 and 99 and 76; RPE1 cell growth (500 nM, 50 h, listed as KT1): 88 and 100 and 79; RPE1 cell growth (500 nM, 52 h, listed as KT1): 91 and 100 and 84; RPE1 cell growth (500 nM, 54 h, listed as KT1): 95 and 100 and 88; RPE1 cell growth (500 nM, 56 h, listed as KT1): 96 and 100 and 91; RPE1 cell growth (500 nM, 58 h, listed as KT1): 98 and 100 and 95; RPE1 cell growth (500 nM, 60 h, listed as KT1): 99 and 100 and 96; RPE1 cell growth (500 nM, 62 h, listed as KT1): 99 and 100 and 97; RPE1 cell growth (500 nM, 64 h, listed as KT1): 100 and 99; RPE1 cell growth (500 nM, 66 h): 100; RPE1 cell growth (500 nM, 68 h): 100; RPE1 cell growth (500 nM, 70 h): 100; RPE1 cell growth (500 nM, 72 h): 100; RPE1 cell growth (1 uM, 14 h, listed as KT1): 32 and 41; RPE1 cell growth (1 uM, 16 h, listed as KT1): 30 and 36 and 43; RPE1 cell growth (1 uM, 18 h, listed as KT1): 32 and 36 and 49; RPE1 cell growth (1 uM, 20 h, listed as KT1): 34 and 39 and 51; RPE1 cell growth (1 uM, 22 h, listed as KT1): 37 and 39 and 54; RPE1 cell growth (1 uM, 24 h, listed as KT1): 40 and 43 and 59; RPE1 cell growth (1 uM, 26 h, listed as KT1): 42 and 46 and 63; RPE1 cell growth (1 uM, 28 h, listed as KT1): 47 and 49 and 69; RPE1 cell growth (1 uM, 30 h, listed as KT1): 49 and 52 and 74; RPE1 cell growth (1 uM, 32 h, listed as KT1): 54 and 56 and 78; RPE1 cell growth (1 uM, 34 h, listed as KT1): 58 and 61 and 80; RPE1 cell growth (1 uM, 36 h, listed as KT1): 61 and 65 and 85; RPE1 cell growth (1 uM, 38 h, listed as KT1): 66 and 68 and 88; RPE1 cell growth (1 uM, 40 h, listed as KT1): 71 and 91; RPE1 cell growth (1 uM, 42 h, listed as KT1): 75 and 77 and 94; RPE1 cell growth (1 uM, 44 h, listed as KT1): 79 and 80 and 96; RPE1 cell growth (1 uM, 46 h, listed as KT1): 85 and 83 and 97; RPE1 cell growth (1 uM, 48 h, listed as KT1): 88 and 98; RPE1 cell growth (1 uM, 50 h, listed as KT1): 91 and 90 and 99; RPE1 cell growth (1 uM, 52 h, listed as KT1): 93 and 92 and 99; RPE1 cell growth (1 uM, 54 h, listed as KT1): 96 and 100; RPE1 cell growth (1 uM, 56 h, listed as KT1): 98 and 97 and 100; RPE1 cell growth (1 uM, 58 h, listed as KT1): 99 and 100; RPE1 cell growth (1 uM, 60 h, listed as KT1): 99 and 100; RPE1 cell growth (1 uM, 62 h, listed as KT1): 99 and 100; RPE1 cell growth (1 uM, 64 h): 100; RPE1 cell growth (1 uM, 66 h): 100; RPE1 cell growth (1 uM, 68 h): 100; RPE1 cell growth (1 uM, 70 h): 100; RPE1 cell growth (1 uM, 72 h): 100; RPE1 cell growth (3 uM, 16 h, listed as KT1): 34 and 44 and 32
